Measured values taken from ChEMBL document CHEMBL1147255, “Isolation and structure elucidation of Sch 642305, a novel bacterial DNA primase inhibitor produced by Penicillium verrucosum” (J Nat Prod, 2003).
Converted amounts (≈) assume the structure as drawn.

Tested on: Escherichia coli
Assay: Antibacterial activity against Escherichia coli HS294 after 18 hrs by microtitre plate method
Format: functional

## CN[C@H](CC(C)C)C(=O)N[C@H]1C(=O)N[C@@H](CC(N)=O)C(=O)N[C@H]2C(=O)N[C@H]3C(=O)N[C@H](C(=O)N[C@H](C(=O)O)c4cc(O)cc(O)c4-c4cc3ccc4O)[C@H](O)c3ccc(c(Cl)c3)Oc3cc2cc(c3O[C@@H]2O[C@H](CO)[C@@H](O)[C@H](O)[C@H]2O[C@H]2C[C@](C)(N)[C@H](O)[C@H](C)O2)Oc2ccc(cc2Cl)[C@H]1O [VANCOMYCIN]
  MIC: 16 µg/mL (≈ 11 µM)
